Reference: PMC5829739
Construct, isoform or probe ends are uncertain for at least one entry. Where cells or extracts were used, other partners may take part. No signal at the amounts used counts as a negative. A weaker result is weaker than the reference pair of the same experiment.

Tested on: PCBP complex (PCBP1/PCBP2, isoform not resolved) (Homo sapiens (K562))
Assay: EMSA
Conditions: heparin, 10 mM Tris-HCl pH 7.4, 150 mM KCl, 1.5 mM MgCl2, 0.5 mM DTT, room temperature 20 min, 5 ng probe, 30 ug K562 S100 extract, 20 ul, then 1 ul heparin (50 mg/ml) for 10 min, protein in an extract, label: 5'-32P
[1] = legend: disrupts PCBP complex formation

Sequence | binding result | binding result [1] | also measured
ACCCUAUAAACCACCCCCCCCCCCCCCCAG [CDK2-13C] | – | – | binding result (strong complex): binds
UGUAAGCCCUGUUGUCUUCUUGUUCCCCAG [mCDK2-WT (mWT-5')] | no binding | – | –
ACCCCGCCCCUCCCUAUUCCCGUCCCUCAG [CDK2-WT-5'] | binds | – | –
ACUUCGCUUCUGCCUAUUUUUGUUUUUCAG [CDK2-Mut1] | no binding | – | –
ACUUCGCUUCUGCCUAUUCCCGUCCCUCAG [CDK2-Mut3] | – | binds more weakly | –
ACUUCGCUUCUGCCUAUUUCCGUUCCUCAG [CDK2-Mut4] | – | binds more weakly | –
